PubChem BioAssay AID1224830, NIAID, 2016
Shown is an unselected part of about 18,000 reagents tested. In the full data, about 2,900 (16%) got an active call. 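Calls are made per well; low scores hint the gene aids the LPS response, high scores that it dampens it.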 Repeated entries: four replicate wells of each siRNA pool. No sequences are given here.

- Purpose: 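Regulators of TLR4 signalling towards TNF-alpha in macrophage-like cells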 (primary screen)
- Cell system: human THP-1 monocytic leukaemia cells, TNF dual-luciferase reporter clone, PMA-differentiated to macrophage-like cells
- Knock-down reagent: siRNA pool against human genes, 50 nM
- Time to read-out: LPS for 4 h, given about 3 days after siRNA transfection
- Challenge: bacterial LPS (TLR4 ligand), 10 ng/ml
- Detection: 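Ratio of firefly to renilla light, scaled to the plate median and expressed as a robust z-score per replicate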
- Reading the numbers: TNF reporter robust z-score: higher = stronger TNF reporter response to LPS
- Hit rule: 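a well is active when its z-score exceeds 2.8 or falls below -1.5; control wells carry no call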

NLRP8
- TNF reporter robust z-score: -0.48
- call: inactive

NLRP8
- TNF reporter robust z-score: -0.33
- call: inactive

NLRP8
- TNF reporter robust z-score: 0.1
- call: inactive

NLRP8
- TNF reporter robust z-score: 0.61
- call: inactive

BBLN
- TNF reporter robust z-score: -1.39
- call: inactive

BBLN
- TNF reporter robust z-score: -0.72
- call: inactive

BBLN
- TNF reporter robust z-score: -1.3
- call: inactive

BBLN
- TNF reporter robust z-score: -0.17
- call: inactive

YWHAG
- TNF reporter robust z-score: -1.01
- call: inactive

YWHAG
- TNF reporter robust z-score: -1.45
- call: inactive

YWHAG
- TNF reporter robust z-score: -1.87
- call: active

YWHAG
- TNF reporter robust z-score: -1.38
- call: inactive

CLTA
- TNF reporter robust z-score: -1.04
- call: inactive

CLTA
- TNF reporter robust z-score: -1.07
- call: inactive

CLTA
- TNF reporter robust z-score: -1.05
- call: inactive

CLTA
- TNF reporter robust z-score: -1.08
- call: inactive

IGF2
- TNF reporter robust z-score: -0.83
- call: inactive

IGF2
- TNF reporter robust z-score: -0.99
- call: inactive

IGF2
- TNF reporter robust z-score: -1.02
- call: inactive

IGF2
- TNF reporter robust z-score: -0.92
- call: inactive

SERPINB10
- TNF reporter robust z-score: -1.66
- call: active

SERPINB10
- TNF reporter robust z-score: -0.83
- call: inactive

SERPINB10
- TNF reporter robust z-score: -1.87
- call: active

SERPINB10
- TNF reporter robust z-score: -1.49
- call: inactive

MAP3K7CL
- TNF reporter robust z-score: -0.42
- call: inactive

MAP3K7CL
- TNF reporter robust z-score: 0.04
- call: inactive

MAP3K7CL
- TNF reporter robust z-score: -0.23
- call: inactive

MAP3K7CL
- TNF reporter robust z-score: -0.16
- call: inactive

MEOX2
- TNF reporter robust z-score: -0.11
- call: inactive

MEOX2
- TNF reporter robust z-score: 0.49
- call: inactive

MEOX2
- TNF reporter robust z-score: 0.43
- call: inactive

MEOX2
- TNF reporter robust z-score: 0.76
- call: inactive

TMUB2
- TNF reporter robust z-score: 1.14
- call: inactive

TMUB2
- TNF reporter robust z-score: 0.18
- call: inactive

TMUB2
- TNF reporter robust z-score: 0.11
- call: inactive

TMUB2
- TNF reporter robust z-score: 0.26
- call: inactive

CDHR1
- TNF reporter robust z-score: 0.05
- call: inactive

CDHR1
- TNF reporter robust z-score: 1.12
- call: inactive

CDHR1
- TNF reporter robust z-score: 0.49
- call: inactive

CDHR1
- TNF reporter robust z-score: 0.39
- call: inactive

CCDC15
- TNF reporter robust z-score: 0.48
- call: inactive

CCDC15
- TNF reporter robust z-score: -0.73
- call: inactive

CCDC15
- TNF reporter robust z-score: -0.62
- call: inactive

CCDC15
- TNF reporter robust z-score: -1.38
- call: inactive

PLPPR2
- TNF reporter robust z-score: -2.12
- call: active

PLPPR2
- TNF reporter robust z-score: -1.85
- call: active

PLPPR2
- TNF reporter robust z-score: -2.07
- call: active

COPRS
- TNF reporter robust z-score: 1.14
- call: inactive

COPRS
- TNF reporter robust z-score: 1.49
- call: inactive

COPRS
- TNF reporter robust z-score: -0.58
- call: inactive

COPRS
- TNF reporter robust z-score: 1.63
- call: inactive

FGF17
- TNF reporter robust z-score: -0.86
- call: inactive

FGF17
- TNF reporter robust z-score: -0.91
- call: inactive

FGF17
- TNF reporter robust z-score: -1.19
- call: inactive

FGF17
- TNF reporter robust z-score: -0.92
- call: inactive

PVALB
- TNF reporter robust z-score: -0.61
- call: inactive

PVALB
- TNF reporter robust z-score: 0.05
- call: inactive

PVALB
- TNF reporter robust z-score: -0.26
- call: inactive

PVALB
- TNF reporter robust z-score: 0.02
- call: inactive

CCL25
- TNF reporter robust z-score: 22
- call: active

CCL25
- TNF reporter robust z-score: 1.08
- call: inactive

CCL25
- TNF reporter robust z-score: 1.46
- call: inactive

CCL25
- TNF reporter robust z-score: 0.91
- call: inactive

Reformatted: 9 of the entries above
{"gene symbol": "TMUB2", "TNF reporter robust z-score": 0.26, "call": "inactive"}
{"gene symbol": "CDHR1", "TNF reporter robust z-score": 0.05, "call": "inactive"}
{"gene symbol": "CDHR1", "TNF reporter robust z-score": 1.12, "call": "inactive"}
{"gene symbol": "CDHR1", "TNF reporter robust z-score": 0.49, "call": "inactive"}
{"gene symbol": "CDHR1", "TNF reporter robust z-score": 0.39, "call": "inactive"}
{"gene symbol": "CCDC15", "TNF reporter robust z-score": 0.48, "call": "inactive"}
{"gene symbol": "CCDC15", "TNF reporter robust z-score": -0.73, "call": "inactive"}
{"gene symbol": "CCDC15", "TNF reporter robust z-score": -0.62, "call": "inactive"}
{"gene symbol": "CCDC15", "TNF reporter robust z-score": -1.38, "call": "inactive"}
